PubChem BioAssay AID1259424 – University of Nebraska Medical Center – 2018

Test: 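Find knockdowns that reproduce the expression shifts seen after KSR1 loss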 (primary screen)
Cells: human HCT116 colon cancer cells
Knock-down reagent: siRNA pool against human genes, 50 nM
Detection: 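Six signature mRNAs by branched-DNA multiplex assay, scaled to two housekeeping genes and non-targeting median, log2; matched to mean KSR1 knockdown profile by Pearson correlation and euclidean distance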
Scale: mean correlation with KSR1 profile: higher = expression change more like KSR1 knockdown; mean distance from KSR1 profile: higher = expression change less like KSR1 knockdown
In all, the deposit lists about 14,000 reagents; this is a part drawn at random. 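Higher correlation or smaller distance means closer resemblance to KSR1 loss; control wells, including KSR1 knockdowns, recur on many plates.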 Not all columns of the deposit are shown. Not stated in the record: the time to read-out.

DDB2 (damage specific DNA binding protein 2) — mean correlation with KSR1 profile: 0.855; mean distance from KSR1 profile: 0.696
EPS15L1 (epidermal growth factor receptor pathway substrate 15 like 1) — mean correlation with KSR1 profile: -0.128; mean distance from KSR1 profile: 2.08
TRIP13 (thyroid hormone receptor interactor 13) — mean correlation with KSR1 profile: 0.428; mean distance from KSR1 profile: 1.47
MERTK (MER proto-oncogene, tyrosine kinase) — mean correlation with KSR1 profile: 0.306; mean distance from KSR1 profile: 1.61
HCAR3 (hydroxycarboxylic acid receptor 3) — mean correlation with KSR1 profile: 0.801; mean distance from KSR1 profile: 1.24
ERO1B (endoplasmic reticulum oxidoreductase 1 beta) — mean correlation with KSR1 profile: 0.674; mean distance from KSR1 profile: 1.28
ELSPBP1 (epididymal sperm binding protein 1) — mean correlation with KSR1 profile: -0.441; mean distance from KSR1 profile: 2.46
ADH5P4 (ADH5 pseudogene 4) — mean correlation with KSR1 profile: -0.321; mean distance from KSR1 profile: 2
TMPO (thymopoietin) — mean correlation with KSR1 profile: -0.331; mean distance from KSR1 profile: 2.15
RUFY1 (RUN and FYVE domain containing 1) — mean correlation with KSR1 profile: -0.355; mean distance from KSR1 profile: 3.23
ITPKB (inositol-trisphosphate 3-kinase B) — mean correlation with KSR1 profile: 0.649; mean distance from KSR1 profile: 0.908
SHQ1 (SHQ1, H/ACA ribonucleoprotein assembly factor) — mean correlation with KSR1 profile: -0.372; mean distance from KSR1 profile: 1.52
SLC7A1 — mean correlation with KSR1 profile: -0.133; mean distance from KSR1 profile: 1.62
LCN2 (lipocalin 2) — mean correlation with KSR1 profile: -0.693; mean distance from KSR1 profile: 1.71
FH (fumarate hydratase) — mean correlation with KSR1 profile: 0.355; mean distance from KSR1 profile: 1.11
MYH9 (myosin heavy chain 9) — mean correlation with KSR1 profile: 0.802; mean distance from KSR1 profile: 1.28
NSG2 (neuronal vesicle trafficking associated 2) — mean correlation with KSR1 profile: -0.291; mean distance from KSR1 profile: 2.94
MRPS33 (mitochondrial ribosomal protein S33) — mean correlation with KSR1 profile: -0.307; mean distance from KSR1 profile: 1.92
PDZRN4 (PDZ domain containing ring finger 4) — mean correlation with KSR1 profile: -0.865; mean distance from KSR1 profile: 1.7
DDX46 (DEAD-box helicase 46) — mean correlation with KSR1 profile: 0.18; mean distance from KSR1 profile: 2.3
HERC1 — mean correlation with KSR1 profile: 0.387; mean distance from KSR1 profile: 1.78
TYW1 (tRNA-yW synthesizing protein 1 homolog) — mean correlation with KSR1 profile: -0.109; mean distance from KSR1 profile: 2.5
TAAR9 (trace amine associated receptor 9) — mean correlation with KSR1 profile: 0.94; mean distance from KSR1 profile: 1.49
VCAM1 (vascular cell adhesion molecule 1) — mean correlation with KSR1 profile: 0.801; mean distance from KSR1 profile: 0.725
SLC27A4 — mean correlation with KSR1 profile: -0.65; mean distance from KSR1 profile: 3.11
CCDC186 (coiled-coil domain containing 186) — mean correlation with KSR1 profile: 0.325; mean distance from KSR1 profile: 1.55
GTF2I (general transcription factor IIi) — mean correlation with KSR1 profile: 0.761; mean distance from KSR1 profile: 3.21
BCAS1 (brain enriched myelin associated protein 1) — mean correlation with KSR1 profile: -0.142; mean distance from KSR1 profile: 2.82
ENSA (endosulfine alpha) — mean correlation with KSR1 profile: -0.388; mean distance from KSR1 profile: 1.95
GLIS2 (GLIS family zinc finger 2) — mean correlation with KSR1 profile: -0.374; mean distance from KSR1 profile: 2.49
KLK2 (kallikrein related peptidase 2) — mean correlation with KSR1 profile: -0.921; mean distance from KSR1 profile: 2.12
TDRD1 (tudor domain containing 1) — mean correlation with KSR1 profile: 0.368; mean distance from KSR1 profile: 4.85
EIF2S2 (eukaryotic translation initiation factor 2 subunit beta) — mean correlation with KSR1 profile: -0.24; mean distance from KSR1 profile: 5.44
SIRAL2 (SIR2 antiphage like 2) — mean correlation with KSR1 profile: -0.0302; mean distance from KSR1 profile: 2.72
C7orf25 (chromosome 7 open reading frame 25) — mean correlation with KSR1 profile: -0.315; mean distance from KSR1 profile: 2.79
RDH5 (retinol dehydrogenase 5) — mean correlation with KSR1 profile: 0.169; mean distance from KSR1 profile: 2.05

A stretch from the list above, as a working copy:
TAAR9 (trace amine associated receptor 9) — mean correlation with KSR1 profile: 0.94; mean distance from KSR1 profile: 1.49
VCAM1 (vascular cell adhesion molecule 1) — mean correlation with KSR1 profile: 0.801; mean distance from KSR1 profile: 0.725
